# Results reported in the supplement of paper PMC10689618.
# This is one part of the list. Many values rest on one well or one pass, so single values are uncertain.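 Labelled rat cortical synaptosomes were engulfed by primary human fetal astrocytes. Engulfment equaled a red/green ratio, corrected for calcein live-cell signal and normalized to the plate median. Compounds were toxic when calcein dropped over 30%, and reduced phagocytosis when below 70% of the median above 5 µM.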
# How the values were obtained:
# [1] = test system: Human fetal astrocytes; experiment: loss of total cells relative to no-compound high-control median (toxicity); higher = more toxic (fewer cells); settings: 24 h
# [2] = test system: Human fetal astrocytes; experiment: synaptosome phagocytosis (pHrodo/calcein intensity ratio) relative to plate median of data wells; higher = more phagocytosis; settings: 24 h
SMILES,loss of total cells ([1]; 1.39 µM) [%],loss of total cells ([1]; 2.78 µM) [%],loss of total cells ([1]; 5.56 µM) [%],loss of total cells ([1]; 11.11 µM) [%],loss of total cells ([1]; 22.22 µM) [%],synaptosome phagocytosis ([2]; 1.39 µM) [%],synaptosome phagocytosis ([2]; 2.78 µM) [%],synaptosome phagocytosis ([2]; 5.56 µM) [%],synaptosome phagocytosis ([2]; 11.11 µM) [%],synaptosome phagocytosis ([2]; 22.22 µM) [%]
CCn1cc(C(=O)O)c(=O)c2cc3c(cc21)OCO3 [Oxolinic acid],-23.2,-21,-0.9,-15.6,13,97.3,81.4,97.5,90.5,109
CCC(COC(=O)c1cc(OC)c(OC)c(OC)c1)(c1ccccc1)N(C)C (stereo not given),-2.5,-62.5,8,-16.3,7.6,106,3.8,126,126,110
COc1cc2c(cc1OC)[C@@]13CCN4CC5=CCO[C@H]6CC(=O)N2[C@H]1[C@H]6[C@H]5C[C@H]43,11,-7.8,-8.4,-1.4,-21.6,123,120,84.8,88.4,108
C[C@H](N)[C@H](O)c1ccccc1,-9.8,4.7,32.1,5.8,12.2,103,128,131,114,118
NCCc1cc(O)c(O)cc1O,7.4,-24.7,11.8,48.7,4,108,68.3,100,84.8,44.1
CCC(C)C(=O)OC1CC2(C)C(c3ccoc3)OC(=O)CC23OC2(C)OC34C(OC(=O)C(C)C)C3(O)C(OC(=O)C5(C)OC5C)C5(C)CC3(O)C(C)(C5CC(=O)OC)C14O2 (stereo not given),11.2,-8,-22.9,31,15.9,161,108,102,136,128
C[C@@]12C(=O)OC(=O)[C@]1(C)[C@H]1CC[C@@H]2O1,-2.5,24.9,27.5,57.3,46.2,84.5,109,70.1,12.9,11.1
c1ccc2c(c1)[nH]c1cnccc12,4.7,11.2,15.2,-10.5,22,94.1,89.8,103,106,139
COc1cccc2c1cc([N+](=O)[O-])c1c(C(=O)O)cc3c(c12)OCO3,-23,-13.4,-5.9,-0.7,8.9,82.8,85.2,99.5,114,94.6
